Assay results reported in article PMC2391170.
No constants are given. Whether binding was seen depends on the method and setting. For some of these results: Binding seen in cells or lysates may run through a third protein. Some results given as binding are weak or reduced against the parent protein; the word gives no strength.

T1: AtPABN2 (Arabidopsis) (UniProt Q93VI4)
T1 sequence: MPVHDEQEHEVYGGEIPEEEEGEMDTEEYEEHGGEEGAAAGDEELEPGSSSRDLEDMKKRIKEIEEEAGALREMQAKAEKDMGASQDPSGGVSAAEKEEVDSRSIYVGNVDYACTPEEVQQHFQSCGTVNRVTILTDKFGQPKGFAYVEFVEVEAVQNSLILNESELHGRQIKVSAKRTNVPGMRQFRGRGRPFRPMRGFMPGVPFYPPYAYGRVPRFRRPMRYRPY

T2: AtPAPS4 (Arabidopsis) (UniProt Q8VYW1)
T2 sequence: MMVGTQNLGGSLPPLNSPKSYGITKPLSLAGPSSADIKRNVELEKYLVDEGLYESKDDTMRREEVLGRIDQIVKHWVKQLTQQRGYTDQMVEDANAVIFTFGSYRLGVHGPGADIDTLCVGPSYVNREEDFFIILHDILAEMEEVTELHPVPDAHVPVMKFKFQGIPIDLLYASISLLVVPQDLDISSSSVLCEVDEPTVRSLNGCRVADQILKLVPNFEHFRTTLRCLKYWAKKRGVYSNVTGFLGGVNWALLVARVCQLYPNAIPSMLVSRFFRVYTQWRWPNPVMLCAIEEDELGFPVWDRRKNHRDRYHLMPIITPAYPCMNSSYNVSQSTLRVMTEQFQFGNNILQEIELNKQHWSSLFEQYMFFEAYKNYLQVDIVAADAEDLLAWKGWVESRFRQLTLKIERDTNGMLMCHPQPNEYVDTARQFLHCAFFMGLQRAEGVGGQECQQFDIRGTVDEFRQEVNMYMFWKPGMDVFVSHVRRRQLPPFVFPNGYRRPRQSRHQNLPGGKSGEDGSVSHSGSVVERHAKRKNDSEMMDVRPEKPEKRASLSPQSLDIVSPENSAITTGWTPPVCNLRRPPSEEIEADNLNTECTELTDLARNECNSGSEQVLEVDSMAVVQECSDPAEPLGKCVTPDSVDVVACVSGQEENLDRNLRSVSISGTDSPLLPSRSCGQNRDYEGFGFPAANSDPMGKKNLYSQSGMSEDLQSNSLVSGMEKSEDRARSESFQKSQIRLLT

T3: PCFS5 (in vitro pull-down) (Arabidopsis) (UniProt Q9FIX8)
T3 sequence: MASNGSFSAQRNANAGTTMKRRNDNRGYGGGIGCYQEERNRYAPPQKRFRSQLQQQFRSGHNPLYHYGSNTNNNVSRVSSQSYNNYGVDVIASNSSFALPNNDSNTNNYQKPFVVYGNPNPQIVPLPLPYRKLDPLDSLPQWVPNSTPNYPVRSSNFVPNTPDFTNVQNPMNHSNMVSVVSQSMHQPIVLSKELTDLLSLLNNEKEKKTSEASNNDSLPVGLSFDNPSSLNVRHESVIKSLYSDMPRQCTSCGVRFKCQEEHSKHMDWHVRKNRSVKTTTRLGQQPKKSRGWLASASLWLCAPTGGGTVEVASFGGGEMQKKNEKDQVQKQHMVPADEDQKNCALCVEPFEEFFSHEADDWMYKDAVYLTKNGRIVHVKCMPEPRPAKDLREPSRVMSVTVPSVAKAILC

T4: PCFS1 (in vitro pull-down) (Arabidopsis) (UniProt Q9C710)
T4 sequence: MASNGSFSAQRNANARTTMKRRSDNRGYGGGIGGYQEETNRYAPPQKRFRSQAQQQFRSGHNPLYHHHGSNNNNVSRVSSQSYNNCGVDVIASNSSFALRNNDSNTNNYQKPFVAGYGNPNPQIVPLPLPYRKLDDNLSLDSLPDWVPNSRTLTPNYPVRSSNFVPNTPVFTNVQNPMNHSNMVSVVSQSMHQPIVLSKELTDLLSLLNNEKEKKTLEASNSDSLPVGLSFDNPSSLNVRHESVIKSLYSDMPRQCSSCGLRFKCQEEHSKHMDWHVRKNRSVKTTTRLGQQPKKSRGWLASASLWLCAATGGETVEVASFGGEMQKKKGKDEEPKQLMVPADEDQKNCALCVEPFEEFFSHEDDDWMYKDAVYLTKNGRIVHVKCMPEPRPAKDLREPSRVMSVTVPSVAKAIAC

B1: AtFIPS5 (protein, UniProt F4KDH9 1-1196)
chain: MEEDDEFGDLYSDVLQPFQPPVVLPPPPPLPHRSIDLNLRSQDQDVSEPNSAPISRVSDNDAVKLSTQDATRQAIVDGGGDDKDMSFDIEEPDADSTPTIPGLFVTGALPGLATDRGVSQVTTRIEQQVGGGGDGGYGGQGEGDDWDSDSEDDLQIVLNDSSRNVMIGGADRRSRMGDNEDDDDEDDEDPLVIVADTDPNQPMEEQMWGEDGLQGIEGDGKDGGEAGKGSGPGGATGPPKAGYSSHGYHPFHSQFKYVRPGAAPIPGGAASVGGPSSGQVRPPANLGPMAGRGRGDWRPLGMRNASAAQKGFHQPWGSNTAGRGLDFTLPSHKTIFEVDIDSFEEKPWRYPGVEMTDYFNFGLNEESWKDYCKQLDQHRIQTTMQSRIRVYESGRTDQGYDPDLPPELAAATGAQGVPVDSSNLVKPDSVQGDSAKVPANVRPTLPPGRPIPVETGSGERLPSIDTRAPRMRDLDAIIEIVCQDSHEDEPSGENGTDQADSSLPGENVPVETSYVNNKRPDTESAEHSPAQDEPHKNLLKKQDDEISRSTDSGQSFRSSSPVGDRGTRSSSVDREDVGGEAGKDAEMGEELKMSFTSPQSAVQEDDGGESKTERSSESSKARSGSHRDFQQEEDVIQDKHSSRPANNRKQYDNNAPHQSRKNQDRGKEMERTRAASKGGRENSNPHMELDSTYIYSIASREDFDKRKERDVDGAVWRRKEDDPYSRRGGDEGSRKRDREDDPGFRQRGKMRENEIRSKDDQVPSRKHMDDAGMRNIYEPDDHINKRRKDEEYLRRSRPEKNEISYGQRESMSRVKRERDDRLEHQKRDVQHKIRDDFDDHGSLRQRDDIYMQRDGNERLRERDVLDKLKLPHEDGISARGRERQVAVRGHRGSEDRSSRMKDEYKASDKEHVTKDTLRHAKQTKRRDYPGEESSSHHRGHEDFSARTDNIVNNEKKPRQERTGAKIDKFIDTLDGQRLQDRKHKDSRRKIKEQREGTESLSKQGEQNGSSVVTGSKGTNDARNCRSEIPHQPNTAKRHKENASSGDEIHDSKRGRTKLERWASHKEREDAVSAKSSSISSKLEEKENNTNGRLSEPVHGSIGKSRDVTEEKIGHDLADTKDGSEKGPGDRHLDTVEKLKKRSERFKLPMPTEKDTTGVKKMESETLPSAKIEGPVDSEGEYVWDERSCVRIGREYA
B2: CLPS3 (in vitro pull-down) (protein, UniProt Q9SR06 1-444)
chain: MAYGGPSMNPPALSGAVPGSANLKQVKLERESELRIEVSEEPLRLRVVNGTAEIFGSELPPEIWRTFPPRMKFAVFTWYGATIEMDGVTETDYTADETPMVSYINVHAILDARRRFAKASTSNDPESSQGPRVIVVGPTDSGKSTLTKMLLSWAAKQGWRPTFVDLDVGQGSITIPGSIAAAPIEMPLDPVEGFPLDMALVYYYGHASPNMNVELYKALVKELAQVLEKQFVGNPESRAAGMVINTMGWIEGIGYELLLHAIDTFNASVVLVLGQEKLFSRLKDVLRSKSNVDVVKLHKSGGVVARVKEVRKRSRNFKIQEYFYGLSKELSPYANTSSFSDLQVFRIGGGPQAPKSALPAGSTSVSNPLRVTPVNIDDRDLLHSVLAVSYAEEPDQIISSNVSGFVYVTEVNVQKKKITYLAPSPGTLPSKLLVAGSLAWLESV

How the values were obtained:
AtPABN2 (Arabidopsis) = target: T1, AtPABN2 (Arabidopsis); assay: two-hybrid; AD (pGAD-C(1)) and BD (pGBD-C(1)) fusions in yeast PJ69-4; dual transformants tested on media lacking leucine, tryptophan and adenine; positive if all tested colonies (4 to 10) grew; both combinations of clones tested whenever possible
AtPAPS4 (Arabidopsis) = target: T2, AtPAPS4 (Arabidopsis); assay: as above
[1] = target: T3, PCFS5 (in vitro pull-down) (Arabidopsis); assay: pull-down; in vitro pull-down; unpublished data of D. Xing and QQ. Li (manuscript in prep)
[2] = target: T4, PCFS1 (in vitro pull-down) (Arabidopsis); assay: as above

Row | Binder | binding (AtPABN2 (Arabidopsis)) | binding (AtPAPS4 (Arabidopsis)) | binding [1] | binding [2]
1 | B1 | binds | binds | – | –
2 | B2 | – | – | binds | binds
